Binding data for 15 molecules are collected here from patent US20250223358A1.

The chains behind the UniProt entries cited, without tags or fusion partners. Where a name states a change or a piece, a line headed by the entry shows the natural chain unless it says otherwise.
UniProt P07766: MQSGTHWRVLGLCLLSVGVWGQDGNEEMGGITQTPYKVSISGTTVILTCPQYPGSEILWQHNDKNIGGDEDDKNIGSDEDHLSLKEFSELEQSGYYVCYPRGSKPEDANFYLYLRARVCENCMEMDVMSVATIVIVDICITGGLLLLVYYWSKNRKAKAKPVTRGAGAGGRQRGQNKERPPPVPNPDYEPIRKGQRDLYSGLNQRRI
UniProt P04234: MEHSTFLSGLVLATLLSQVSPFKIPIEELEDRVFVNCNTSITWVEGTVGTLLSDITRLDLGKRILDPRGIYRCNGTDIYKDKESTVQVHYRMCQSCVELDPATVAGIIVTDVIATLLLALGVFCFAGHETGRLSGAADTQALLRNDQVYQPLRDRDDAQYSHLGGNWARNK
UniProt P09693: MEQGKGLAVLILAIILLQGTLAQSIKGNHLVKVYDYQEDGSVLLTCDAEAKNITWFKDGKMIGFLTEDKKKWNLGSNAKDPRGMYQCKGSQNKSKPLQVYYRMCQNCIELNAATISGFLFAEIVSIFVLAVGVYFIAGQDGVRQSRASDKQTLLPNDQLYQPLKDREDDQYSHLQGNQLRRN

First the molecules themselves.
B1: hu40E9-L2H3-D99E.H (antibody, V domains shown)
VH: EVQLVQSGAEVKKPGSSVKVSCKASGYTFSSYVIHWVRQAPGQGLEWMGYINPYNDVIKYNEKFKGRVTLTSDKSTSTAYMELSSLRSEDTAVYYCARESYYSYDGFAYWGQGTLVTVSS
VL: EIVLTQSPDFQSVTPKEKVTITCSASSSVSYMHWYQQKPDQSPKRLIYDTSKLASGVPSRFSGSGSGTDFTLTINSLEAEDAATYYCQQWSSNPPTFGGGTKVEIK
B2: hu40E9-L3H2 (antibody, V domains shown)
VH: EVQLVQSGAEVKKPGSSVKVSCKASGYTFSSYVIHWVRQAPGQGLEWMGYINPYNDVIKYNEKFKGRVTITADKSTSTAYMELSSLRSEDTAVYYCARDSYYSYDGFAYWGQGTLVTVSS
VL: EIVLTQSPDFQSVTPKEKVTITCSASSSVSYMHWYQQKPDQSPKRWIYDTSKLASGVPSRFSGSGSGTDYTLTINSLEAEDAATYYCQQWSSNPPTFGGGTKVEIK
B3: hu40E9-L2H3-N93S.L (antibody, V domains shown)
VH: EVQLVQSGAEVKKPGSSVKVSCKASGYTFSSYVIHWVRQAPGQGLEWMGYINPYNDVIKYNEKFKGRVTLTSDKSTSTAYMELSSLRSEDTAVYYCARDSYYSYDGFAYWGQGTLVTVSS
VL: EIVLTQSPDFQSVTPKEKVTITCSASSSVSYMHWYQQKPDQSPKRLIYDTSKLASGVPSRFSGSGSGTDFTLTINSLEAEDAATYYCQQWSSSPPTFGGGTKVEIK
B4: hu40E9-L2H3-D105R.H (antibody, V domains shown)
VH: EVQLVQSGAEVKKPGSSVKVSCKASGYTFSSYVIHWVRQAPGQGLEWMGYINPYNDVIKYNEKFKGRVTLTSDKSTSTAYMELSSLRSEDTAVYYCARDSYYSYRGFAYWGQGTLVTVSS
VL: EIVLTQSPDFQSVTPKEKVTITCSASSSVSYMHWYQQKPDQSPKRLIYDTSKLASGVPSRFSGSGSGTDFTLTINSLEAEDAATYYCQQWSSNPPTFGGGTKVEIK
B5: hu40E9-L2H3-Y54G.H (antibody, V domains shown)
VH: EVQLVQSGAEVKKPGSSVKVSCKASGYTFSSYVIHWVRQAPGQGLEWMGYINPGNDVIKYNEKFKGRVTLTSDKSTSTAYMELSSLRSEDTAVYYCARDSYYSYDGFAYWGQGTLVTVSS
VL: EIVLTQSPDFQSVTPKEKVTITCSASSSVSYMHWYQQKPDQSPKRLIYDTSKLASGVPSRFSGSGSGTDFTLTINSLEAEDAATYYCQQWSSNPPTFGGGTKVEIK
B6: hu40E9-L2H3-Y101F.H (antibody, V domains shown)
VH: EVQLVQSGAEVKKPGSSVKVSCKASGYTFSSYVIHWVRQAPGQGLEWMGYINPYNDVIKYNEKFKGRVTLTSDKSTSTAYMELSSLRSEDTAVYYCARDSFYSYDGFAYWGQGTLVTVSS
VL: EIVLTQSPDFQSVTPKEKVTITCSASSSVSYMHWYQQKPDQSPKRLIYDTSKLASGVPSRFSGSGSGTDFTLTINSLEAEDAATYYCQQWSSNPPTFGGGTKVEIK
B7: hu40E9-L2H3-N93W.L (antibody, V domains shown)
VH: EVQLVQSGAEVKKPGSSVKVSCKASGYTFSSYVIHWVRQAPGQGLEWMGYINPYNDVIKYNEKFKGRVTLTSDKSTSTAYMELSSLRSEDTAVYYCARDSYYSYDGFAYWGQGTLVTVSS
VL: EIVLTQSPDFQSVTPKEKVTITCSASSSVSYMHWYQQKPDQSPKRLIYDTSKLASGVPSRFSGSGSGTDFTLTINSLEAEDAATYYCQQWSSWPPTFGGGTKVEIK
B8: hu40E9-L2H3-S91R.L (antibody, V domains shown)
VH: EVQLVQSGAEVKKPGSSVKVSCKASGYTFSSYVIHWVRQAPGQGLEWMGYINPYNDVIKYNEKFKGRVTLTSDKSTSTAYMELSSLRSEDTAVYYCARDSYYSYDGFAYWGQGTLVTVSS
VL: EIVLTQSPDFQSVTPKEKVTITCSASSSVSYMHWYQQKPDQSPKRLIYDTSKLASGVPSRFSGSGSGTDFTLTINSLEAEDAATYYCQQWRSNPPTFGGGTKVEIK
B9: hu40E9-L2H3-Y102S.H (antibody, V domains shown)
VH: EVQLVQSGAEVKKPGSSVKVSCKASGYTFSSYVIHWVRQAPGQGLEWMGYINPYNDVIKYNEKFKGRVTLTSDKSTSTAYMELSSLRSEDTAVYYCARDSYSSYDGFAYWGQGTLVTVSS
VL: EIVLTQSPDFQSVTPKEKVTITCSASSSVSYMHWYQQKPDQSPKRLIYDTSKLASGVPSRFSGSGSGTDFTLTINSLEAEDAATYYCQQWSSNPPTFGGGTKVEIK
B10: hu40E9-L2H3-N55S.H (antibody, V domains shown)
VH: EVQLVQSGAEVKKPGSSVKVSCKASGYTFSSYVIHWVRQAPGQGLEWMGYINPYSDVIKYNEKFKGRVTLTSDKSTSTAYMELSSLRSEDTAVYYCARDSYYSYDGFAYWGQGTLVTVSS
VL: EIVLTQSPDFQSVTPKEKVTITCSASSSVSYMHWYQQKPDQSPKRLIYDTSKLASGVPSRFSGSGSGTDFTLTINSLEAEDAATYYCQQWSSNPPTFGGGTKVEIK
B11: hu40E9-L2H3 (antibody, V domains shown)
VH: EVQLVQSGAEVKKPGSSVKVSCKASGYTFSSYVIHWVRQAPGQGLEWMGYINPYNDVIKYNEKFKGRVTLTSDKSTSTAYMELSSLRSEDTAVYYCARDSYYSYDGFAYWGQGTLVTVSS
VL: EIVLTQSPDFQSVTPKEKVTITCSASSSVSYMHWYQQKPDQSPKRLIYDTSKLASGVPSRFSGSGSGTDFTLTINSLEAEDAATYYCQQWSSNPPTFGGGTKVEIK
B12: hu40E9-L2H1 (antibody, V domains shown)
VH: EVQLVQSGAEVKKPGSSVKVSCKASGGTFSSYVIHWVRQAPGQGLEWMGYINPYNDVIKYNEKFKGRVTITADKSTSTAYMELSSLRSEDTAVYYCARDSYYSYDGFAYWGQGTLVTVSS
VL: EIVLTQSPDFQSVTPKEKVTITCSASSSVSYMHWYQQKPDQSPKRLIYDTSKLASGVPSRFSGSGSGTDFTLTINSLEAEDAATYYCQQWSSNPPTFGGGTKVEIK
B13: hu40E9-L2H3-D56G.H (antibody, V domains shown)
VH: EVQLVQSGAEVKKPGSSVKVSCKASGYTFSSYVIHWVRQAPGQGLEWMGYINPYNGVIKYNEKFKGRVTLTSDKSTSTAYMELSSLRSEDTAVYYCARDSYYSYDGFAYWGQGTLVTVSS
VL: EIVLTQSPDFQSVTPKEKVTITCSASSSVSYMHWYQQKPDQSPKRLIYDTSKLASGVPSRFSGSGSGTDFTLTINSLEAEDAATYYCQQWSSNPPTFGGGTKVEIK
B14: hu40E9-L3H4 (antibody, V domains shown)
VH: EVQLVQSGAEVKKPGSSVKVSCKASGYTFSSYVIHWVRQAPGQGLEWIGYINPYNDVIKYNEKFKGRATLTSDKSTSTAYMELSSLRSEDTAVYYCARDSYYSYDGFAYWGQGTLVTVSS
VL: EIVLTQSPDFQSVTPKEKVTITCSASSSVSYMHWYQQKPDQSPKRWIYDTSKLASGVPSRFSGSGSGTDYTLTINSLEAEDAATYYCQQWSSNPPTFGGGTKVEIK
B15: hu40E9-L2H3-N93R.L (antibody, V domains shown)
VH: EVQLVQSGAEVKKPGSSVKVSCKASGYTFSSYVIHWVRQAPGQGLEWMGYINPYNDVIKYNEKFKGRVTLTSDKSTSTAYMELSSLRSEDTAVYYCARDSYYSYDGFAYWGQGTLVTVSS
VL: EIVLTQSPDFQSVTPKEKVTITCSASSSVSYMHWYQQKPDQSPKRLIYDTSKLASGVPSRFSGSGSGTDFTLTINSLEAEDAATYYCQQWSSRPPTFGGGTKVEIK

Results are given in words; binding and its absence hold for the method and conditions named. Some entries that bind do so weakly or less than the wild type.

The target of the experiment is human CD3 (human) (UniProt P07766+P04234+P09693). Put plainly: FACS on Jurkat cells.
On to B1, for which the binding entry was “binds”.

Turning to B2, the binding result is listed as “binds”.

On to B3, for which the binding result was “binds”.

As to B4, the binding result is reported as “binds”.

As for B5, the binding entry is recorded as “binds”.

Take B6: the binding entry was “binds”.

Turning to B7, the binding entry is on record as “binds”.

Regarding B8, the binding entry was “binds”.

Consider B9, for which the binding entry was “binds”.

Take B10: the binding entry is recorded as “binds”.

Consider B11, for which the binding result is listed as “binds”.

As for B12, the binding entry is given as “binds”.

As to B13, the binding entry was “binds”.

With B14, the binding entry is listed as “binds”.

Consider B15, for which the binding result is “binds”.
